The exact form of at least one protein or probe is not confirmed.
Tests used:
Test in all cases: activity assay
[1] = biological target: KlenTaq fragment of Taq DNA polymerase (Thermus aquaticus) (UniProt P19821); settings: 4.5 mM MgCl2, purified recombinant protein, protein details: GeneCraft, label: 5'-fluorescein on primer
[2] = biological target: Pfu DNA polymerase (Pyrococcus furiosus) (UniProt P61875); settings: 4.5 mM MgCl2, purified recombinant protein, label: 5'-fluorescein on primer
[3] = tested on: PfuC2 (Pfu DNA polymerase - Topo V C2 domain 518-984); settings: 4.5 mM MgCl2, purified recombinant protein, protein details: starts Met-Val instead of Met-Ile, Lys-Leu linker, label: 5'-fluorescein on primer
[4] = biological target: Stoffel fragment of Taq DNA polymerase (Thermus aquaticus) (UniProt P19821); settings: 4.5 mM MgCl2, purified recombinant protein, protein details: Applied BioSystems, label: 5'-fluorescein on primer
[5] = biological target: Taq DNA polymerase (Thermus aquaticus) (UniProt P19821); settings: 4.5 mM MgCl2, purified recombinant protein, protein details: Roche Applied Science, label: 5'-fluorescein on primer
[6] = tested on: TaqTopoC1 (Taq 279-832 - Topo V 384-984) (Thermus aquaticus / Methanopyrus kandleri chimera); settings: 4.5 mM MgCl2, purified recombinant protein, label: 5'-fluorescein on primer
[7] = tested on: TaqTopoC2 (Taq 279-832 - Topo V 518-984) (Thermus aquaticus / Methanopyrus kandleri chimera); settings: 4.5 mM MgCl2, purified recombinant protein, label: 5'-fluorescein on primer
[8] = tested on: TaqTopoC3 (Taq 279-832 - Topo V 676-984) (Thermus aquaticus / Methanopyrus kandleri chimera); settings: 4.5 mM MgCl2, purified recombinant protein, label: 5'-fluorescein on primer
[9] = tested on: TopoTaq (Topo V 685-984 - AYDVGA linker - Taq 290-832) (Methanopyrus kandleri / Thermus aquaticus chimera); settings: 4.5 mM MgCl2, purified recombinant protein, protein details: initiating Met, expressed in E. coli BL21 pLysS, label: 5'-fluorescein on primer
[10] = primer extension 50-105 C, no added salt
[11] = primer extension 50-105 C, 0.25 M potassium glutamate

Amino acid sequences for entries named in this document (tags omitted). Residues count along the entry.
UniProt P19821, 281-832: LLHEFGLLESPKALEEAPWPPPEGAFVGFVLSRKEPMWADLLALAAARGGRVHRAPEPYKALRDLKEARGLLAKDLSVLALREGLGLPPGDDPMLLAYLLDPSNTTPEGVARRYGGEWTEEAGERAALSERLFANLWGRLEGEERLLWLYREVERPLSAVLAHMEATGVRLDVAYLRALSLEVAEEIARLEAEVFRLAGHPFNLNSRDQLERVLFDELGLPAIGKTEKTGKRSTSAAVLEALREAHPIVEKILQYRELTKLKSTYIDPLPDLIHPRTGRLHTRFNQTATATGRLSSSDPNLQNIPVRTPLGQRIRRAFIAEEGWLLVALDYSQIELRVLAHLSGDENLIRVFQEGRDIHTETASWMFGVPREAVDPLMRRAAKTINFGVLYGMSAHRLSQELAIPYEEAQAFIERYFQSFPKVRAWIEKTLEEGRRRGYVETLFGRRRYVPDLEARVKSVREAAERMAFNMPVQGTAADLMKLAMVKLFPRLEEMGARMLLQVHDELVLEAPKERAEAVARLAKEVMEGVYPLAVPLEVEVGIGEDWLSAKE
UniProt P19821, 290-832: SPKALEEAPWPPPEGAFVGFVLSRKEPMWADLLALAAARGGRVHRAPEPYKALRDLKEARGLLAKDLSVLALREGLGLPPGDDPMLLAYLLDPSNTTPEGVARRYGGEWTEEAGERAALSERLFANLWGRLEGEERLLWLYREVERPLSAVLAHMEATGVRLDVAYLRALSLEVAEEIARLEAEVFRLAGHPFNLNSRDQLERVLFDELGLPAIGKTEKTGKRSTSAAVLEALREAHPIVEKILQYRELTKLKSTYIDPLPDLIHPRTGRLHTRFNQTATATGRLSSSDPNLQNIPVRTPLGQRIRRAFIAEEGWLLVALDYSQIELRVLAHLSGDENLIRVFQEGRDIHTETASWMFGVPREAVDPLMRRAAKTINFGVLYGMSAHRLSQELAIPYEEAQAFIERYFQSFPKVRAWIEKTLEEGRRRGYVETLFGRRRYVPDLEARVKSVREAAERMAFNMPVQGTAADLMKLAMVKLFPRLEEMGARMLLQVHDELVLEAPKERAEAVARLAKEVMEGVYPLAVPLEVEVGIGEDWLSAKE
UniProt P19821, whole entry: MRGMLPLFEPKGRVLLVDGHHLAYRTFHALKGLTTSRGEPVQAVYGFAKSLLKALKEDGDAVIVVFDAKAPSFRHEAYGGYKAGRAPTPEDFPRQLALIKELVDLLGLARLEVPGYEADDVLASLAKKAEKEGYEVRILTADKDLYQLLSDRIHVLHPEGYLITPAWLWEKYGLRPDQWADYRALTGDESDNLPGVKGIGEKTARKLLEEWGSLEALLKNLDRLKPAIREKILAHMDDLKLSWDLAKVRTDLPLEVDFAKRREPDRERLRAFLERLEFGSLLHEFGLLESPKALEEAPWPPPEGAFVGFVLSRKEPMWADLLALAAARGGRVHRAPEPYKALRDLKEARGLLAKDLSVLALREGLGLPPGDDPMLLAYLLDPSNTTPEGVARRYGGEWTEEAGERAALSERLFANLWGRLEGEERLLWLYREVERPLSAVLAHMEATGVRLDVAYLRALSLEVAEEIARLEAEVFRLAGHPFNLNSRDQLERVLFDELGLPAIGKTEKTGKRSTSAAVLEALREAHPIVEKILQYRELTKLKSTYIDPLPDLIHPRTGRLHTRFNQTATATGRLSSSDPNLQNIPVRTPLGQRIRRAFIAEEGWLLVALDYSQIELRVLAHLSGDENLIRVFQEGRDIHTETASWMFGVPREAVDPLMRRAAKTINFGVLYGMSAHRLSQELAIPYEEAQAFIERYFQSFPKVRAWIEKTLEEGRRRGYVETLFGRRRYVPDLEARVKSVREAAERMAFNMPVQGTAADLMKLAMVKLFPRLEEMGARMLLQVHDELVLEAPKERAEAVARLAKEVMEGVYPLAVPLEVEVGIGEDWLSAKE

Measured: activity on this sequence

GTAATACGACTCACTATAGGG / CCCCCAAAAACCCTATAGTGAGTCGTATTACAATTCACTGGCCGTCGTTTTT [PTJ primer-template junction]
active: [1]; primer extension 75 C, salt inhibition Ki NaCl 40.0, KCl 32.7, KGlu 71.0 | [2]; primer extension 75 C, salt inhibition Ki NaCl 51.5, KCl 42.6, KGlu 42.8 | [3]; primer extension 75 C, salt inhibition Ki NaCl 159.6, KCl 176.8, KGlu 424.8 | [4]; primer extension 75 C, salt inhibition Ki NaCl 38.6, KCl 45.8, KGlu 59.6 | [5]; primer extension 75 C, salt inhibition Ki NaCl 138.7, KCl 161.0, KGlu 610 | [6]; primer extension 75 C, salt inhibition Ki NaCl 228.4, KCl 231.2, KGlu 1730.0 | [7]; primer extension 75 C, salt inhibition Ki NaCl 238.4, KCl 251.0, KGlu 1164.5 | [8]; primer extension 75 C, salt inhibition Ki NaCl 69.0, KCl 187.7, KGlu 295.8 | [9]; primer extension 75 C, salt inhibition Ki NaCl 241.3, KCl 291.1, KGlu 1403.0 (unit not given)

GTGTGGTGGTGGTGGTGGTGGTGGTGGTGGTGGTGGTGGT / CACACCACCACCACCACCACCACCACCACCACCACCACCAAAAAATTTTT [high-temperature PTJ]
active: [1]; [10] | [2]; [10] | [3]; [11] | [4]; [10] | [5]; [10] | [6]; [11] | [7]; [11] | [8]; [11] | [9]; [11]
